Publication PMC7249048
These are yes or no findings as the source states them, for the method shown. Some entries that bind do so weakly or less than the wild type. Each block holds one binder with its values, some of them ahead of it.

Tests used:
AtBBD1 (Arabidopsis) = AtBBD1 (Arabidopsis) (UniProt Q9FWS6); assay: two-hybrid; … system (Clontech); pGBKT7 (GAL4 DNA binding domain) and pGADT7 (GAL4 activation domain) fusions in yeast strain AH109; growth on SD/-L-W-A-H, 30 °C, observed after five days
AtBBD2 (Arabidopsis) = target: T1, AtBBD2 (Arabidopsis) (UniProt Q93VH2); assay: as above
T1 sequence: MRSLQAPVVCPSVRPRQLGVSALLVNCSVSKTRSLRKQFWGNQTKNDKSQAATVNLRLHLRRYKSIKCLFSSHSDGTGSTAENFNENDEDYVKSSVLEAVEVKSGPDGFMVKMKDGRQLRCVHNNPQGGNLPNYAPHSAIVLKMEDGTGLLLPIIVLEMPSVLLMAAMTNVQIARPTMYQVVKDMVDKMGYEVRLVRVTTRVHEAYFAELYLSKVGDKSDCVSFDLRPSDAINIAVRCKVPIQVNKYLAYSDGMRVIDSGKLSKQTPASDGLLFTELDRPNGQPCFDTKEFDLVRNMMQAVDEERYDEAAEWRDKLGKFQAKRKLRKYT

- binding (AtBBD1 (Arabidopsis)): binds
- binding (AtBBD2 (Arabidopsis)): no binding
B1: AtBBD1 (enzyme, UniProt Q9FWS6 1-325)
chain: MRSVQAPVVCPAIRPRQVGACASLVNYTGLKPRSQFWGNRTKGVKSQGTTTTITLRLCNKSIKCVFSSHSDGNGSTAENFNENDEEYVNSSVVEAVEVKSGADGFMVKMRDGRQLRCVHNNPQGGHLPDYAPHPAIVLKMEDGTGLLLPIIVLEMPSVLLMAAMTNVQIARPTMYQVVKEMVDKMGYEVRLVRVTKRVHEAYFAQLFLSKVGNASECVSFDLRPSDAINIAVRCKIPIQVNKYLAYSDGMRVIESGKISTPAPASDGLLFTEQDRPNGQACLDTKEFNILSKMMQAVDEERYDEAAEWRDKLGQFRAKRNLRKYT

- binding (AtBBD2 (Arabidopsis)): binds
B2: AtBBD2 (enzyme, UniProt Q93VH2 1-329)
chain: T1 sequence
